Reference: publication PMC12865031
Construct, isoform or probe ends are uncertain for at least one entry. For part of these data: Negatives hold for the conditions tested. For part of these data: Weaker means in comparison with the reference protein, sequence or condition of that experiment. For part of these data: At least one verdict rests on a figure or table, not on a statement of the authors.

The chains behind the UniProt entries cited, without tags or fusion partners. Residues count along the entry.
UniProt Q15365, whole entry: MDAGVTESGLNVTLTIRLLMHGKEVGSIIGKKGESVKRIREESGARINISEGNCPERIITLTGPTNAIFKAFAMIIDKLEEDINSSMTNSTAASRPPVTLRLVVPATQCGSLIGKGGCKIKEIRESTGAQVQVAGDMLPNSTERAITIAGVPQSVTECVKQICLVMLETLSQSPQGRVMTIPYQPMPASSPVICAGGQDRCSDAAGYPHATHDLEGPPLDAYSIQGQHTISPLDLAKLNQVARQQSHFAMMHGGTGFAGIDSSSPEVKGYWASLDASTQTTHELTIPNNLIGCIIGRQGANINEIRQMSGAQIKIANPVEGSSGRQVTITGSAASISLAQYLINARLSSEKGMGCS
UniProt Q15365, 1-169: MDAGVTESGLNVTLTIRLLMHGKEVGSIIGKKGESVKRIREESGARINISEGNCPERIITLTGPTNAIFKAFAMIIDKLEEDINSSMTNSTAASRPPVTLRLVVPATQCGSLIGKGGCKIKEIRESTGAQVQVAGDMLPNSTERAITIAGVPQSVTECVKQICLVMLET
UniProt Q15365, 269-356: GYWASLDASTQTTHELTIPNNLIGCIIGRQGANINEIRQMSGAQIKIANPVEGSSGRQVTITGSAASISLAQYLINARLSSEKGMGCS

What was measured:
PCBP1 (wild type) [1] = molecular target: PCBP1 (wild type) (UniProt Q15365); experiment: MST; conditions: >2-fold weaker than pH 6.4, MST: 20 mM MES pH 6.4, phosphate pH 7.0 or Tris-Cl pH 8.0, 100 mM NaCl, 25 C, recombinant protein, protein details: His tag (pET-His1a), removed by TEV, label: 5'-Cy5 (EMSA, MST), folded or branched DNA
PCBP1 KH1+2 = PCBP1 KH1+2 (UniProt Q15365); experiment: MST; conditions: no structural selectivity, MST: 20 mM MES pH 6.4, phosphate pH 7.0 or Tris-Cl pH 8.0, 100 mM NaCl, 25 C, recombinant protein, protein details: His tag (pET-His1a), removed by TEV, label: 5'-Cy5 (EMSA, MST), folded or branched DNA
PCBP1 (wild type) [2] = molecular target: PCBP1 (wild type) (UniProt Q15365); experiment: EMSA; conditions: pH 8.0, unfolded, single shift, more protein needed; EMSA: 20 mM Bis-Tris pH 6.4 or Tris-HCl pH 8.0, 100 mM NaCl, 0.25 mg/mL BSA, 25 C; recombinant protein; protein details: His tag (pET-His1a), removed by TEV; label: 5'-Cy5 (EMSA, MST); folded or branched DNA
PCBP1 KH3 = PCBP1 KH3 (UniProt Q15365); experiment: bromine footprinting; conditions: pH 6.4, no significant effect; recombinant protein; protein details: His tag (pET-His1a), removed by TEV; label: 3'-Cy5; folded or branched DNA

Row | Sequence | binding result (PCBP1 (wild type) [1]; pH 7.0, unfolded) | binding result (PCBP1 (wild type) [1]; pH 8.0, unfolded) | binding result (PCBP1 KH1+2; pH 7.0, unfolded) | binding result (PCBP1 KH1+2; pH 8.0, unfolded) | binding result (PCBP1 (wild type) [2]) | binding result (PCBP1 KH3)
1 | AATCCCACCCCTCCCATCCCTT [cMYC-iMfs] | binds more weakly | binds more weakly | binds | binds | binds more weakly | 
2 | AATCCCACCCCTCCCATCCCTTTTT [cMYC-iMfs-Br] |  |  |  |  |  | no binding
3 | CAGCCCCGCTCCCGCCCCCTTCCTCCCGCGCCCGCCCCT [BCL2-iMfs] | binds more weakly | binds more weakly |  |  | binds more weakly | 
4 | CCCTAACCCTAACCCTAACCCT [hTeloC-iMfs] | binds more weakly | binds more weakly |  |  | binds more weakly | 
5 | TGTCCCCACACCCCTGTCCCCACACCCCTGT [ILPR-iMfs] | binds more weakly | binds more weakly |  |  | binds more weakly | 
